Drawing on PubChem BioAssay AID328 (DTP/NCI, 2004), this text covers T/C and survivor count for five compounds.

This assay relates to BDF1 mice, P388 leukemia ip, median survival T/C. Put plainly: NCI In Vivo Anticancer Drug Screen. Data for tumor model P388 Leukemia (intraperitoneal) in B6D2F1 (BDF1) mice. As to conditions: T/C endpoint: median survival time, higher T/C = longer survival. The procedure, abridged:
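Survival ratio, drug arm over vehicle arm, in mice with a transplanted tumour.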

[1] abbreviates: dose: 7.0 mg/kg/injection, schedule: Q01DX001 (ip), vehicle: saline.
Setting [2] is: dose: 14.0 mg/kg/injection, schedule: Q01DX001 (ip), vehicle: saline.

The list shows only some results of the screen, not a fair sample: it is rich in T/C values a quarter to a half above the control, in often repeated tests (any T/C) and in doses without a T/C. Other doses and runs of a compound stand elsewhere. T/C gives the treated animals as a percentage of the vehicle group. Some doses have a count of surviving animals in place of a T/C: the source holds a T/C of zero for them, seemingly a mark for toxic or unscored doses. Some survivor counts are full or nearly so, which does not show that the dose was tolerated: the source hardly ever lists a survival T/C far under the control, and the zero likely stands for such cases as well. Counts of survivors are from the toxicity check (mostly the fifth day) where no day follows; animals may have died later. Schedule codes are those of the source, read here as Q, the interval in days (D) or hours (H), X, the number of doses. Some entries hold several experiments; the values are given in rising order. Some schedule codes hold Z or #, which are not explained here. Where survival is the endpoint, this PubChem deposit counts one and a half times the control or more as active, and values a quarter to a half above the control carry no call in these data; other NCI protocols may use other cut-offs. Some T/C values carry the count of animals alive at the toxicity check (mostly the fifth day); where none is given, no animal had died by that day. Counts like (3×) say how often a value occurs here.

As for `CC[N+](CC)(CC)CCCCCC[N+](CC)(CC)CC`, the T/C reads like this: (dose: 4.0 mg/kg/injection, schedule: Q04DX003 (ip), vehicle: water) 127 % of control; (dose: 8.0 mg/kg/injection, schedule: Q04DX003 (ip), vehicle: water) 130 % of control. Besides, the survivor count runs as follows: (dose: 12.0 mg/kg/injection, schedule: Q04DX003 (ip), vehicle: water) 2 of 6; (dose: 12.5 mg/kg/injection, schedule: Q04DX003 (ip), vehicle: water) 5 of 6; (dose: 25.0 mg/kg/injection, schedule: Q04DX003 (ip), vehicle: water) 2 of 6.
As to `CCN1c2ccccc2CC(CCN(C(C)C)C(C)C)(C(N)=O)c2ccccc21` (configuration not stated), the survivor count is listed as 0 of 6 (dose: 200.0 mg/kg/injection, schedule: Q04DX002 (ip), vehicle: saline with Tween-80) and 0 of 6 (dose: 400.0 mg/kg/injection, schedule: Q04DX002 (ip), vehicle: saline with Tween-80).
For `CC(=O)Nc1ccc([I+]c2ccc([N+](=O)[O-])cc2)cc1`, the T/C by setting is: (dose: 35.0 mg/kg/injection, schedule: Q01DX009 (ip), vehicle: saline with Tween-80) 125 % of control; (dose: 50.0 mg/kg/injection, schedule: Q01DX009 (ip), vehicle: Klucel (hydroxypropylcellulose) (HPC)) 127 % of control; (dose: 50.0 mg/kg/injection, schedule: Q01DX009 (ip), vehicle: saline with Tween-80) 125 % of control; (dose: 150.0 mg/kg/injection, schedule: Q01DX009 (ip), vehicle: saline with Tween-80) 133 % of control.
With `Nc1ncnc2c1ccn2C1OC(CO)C(O)C1O` (configuration not stated), the T/C is, setting by setting: (dose: 0.16 mg/kg/injection, schedule: Q01DX010 (ip), vehicle: saline) 140 % of control; (dose: 0.25 mg/kg/injection, schedule: Q#A X020 (ip), vehicle: saline) 141 % of control; (dose: 0.31 mg/kg/injection, schedule: Q01DX010 (ip), vehicle: saline) 135 and 140 % of control; (dose: 0.44 mg/kg/injection, schedule: Q07DX002 (ip), vehicle: saline) 145 % of control; (dose: 0.5 mg/kg/injection, schedule: Q01DX010 (ip), vehicle: saline) 145 % of control; (dose: 0.5 mg/kg/injection, schedule: Q#A X020 (ip), vehicle: saline) 145 % of control. Also, the T/C by setting is: (dose: 0.63 mg/kg/injection, schedule: Q01DX010 (ip), vehicle: saline) 136, 140, 145, 150 % of control; (dose: 0.88 mg/kg/injection, schedule: Q07DX002 (ip), vehicle: saline) 136 % of control; (dose: 1.25 mg/kg/injection, schedule: Q01DX010 (ip), vehicle: saline) 105, 118, 150 % of control (2×); (dose: 2.0 mg/kg/injection, schedule: Q02DX005 (ip), vehicle: saline) 125 and 144 % of control [9 of 10 alive]; (dose: 3.5 mg/kg/injection, schedule: Q07DX002 (ip), vehicle: saline) 136 % of control; (dose: 3.5 mg/kg/injection, schedule: Q07DX010 (ip), vehicle: saline) 127 % of control [5 of 6 alive]. The T/C was 133 % of control (dose: 4.0 mg/kg/injection, schedule: Q04DX003 (ip), vehicle: saline); 127 % of control under setting [1]; 127 % of control under setting [2]; 136 % of control (dose: 250.0 mg/kg/injection, schedule: Q#A X020 (ip), vehicle: saline); 136 % of control (dose: 500.0 micrograms/kg/injection, schedule: Q01DX010 (ip), vehicle: saline). For the same compound, the survivor count reads like this: (dose: 0.5 mg/kg/injection, schedule: Q01DX010 (sc), vehicle: saline) 6 of 6; (dose: 1.0 mg/kg/injection, schedule: Q#A X020 (ip), vehicle: saline) 5 of 6; (dose: 2.0 mg/kg/injection, schedule: Q01DX010 (oral), vehicle: saline) 4 of 6; (dose: 2.0 mg/kg/injection, schedule: Q#A X002 (ip), vehicle: saline) 10 of 10; (dose: 2.0 mg/kg/injection, schedule: Q#A X020 (ip), vehicle: saline) 6 of 6; (dose: 2.5 mg/kg/injection, schedule: Q01DX010 (ip), vehicle: saline) 4 of 6 and 6 of 6. Also, the survivor count (dose: 3.5 mg/kg/injection, schedule: Q01DX001 (ip), vehicle: saline) was 3 of 6; the survivor count (dose: 4.0 mg/kg/injection, schedule: Q01DX006 (iv), vehicle: saline) was 6 of 6; the survivor count (dose: 4.0 mg/kg/injection, schedule: Q01DX010 (ip), vehicle: saline) is on record as 5 of 6; the survivor count (dose: 4.0 mg/kg/injection, schedule: Q01DX010 (oral), vehicle: saline) was 3 of 6 and 4 of 6; the survivor count (dose: 4.0 mg/kg/injection, schedule: Q02DX005 (ip), vehicle: saline) is given as 10 of 10; the survivor count (dose: 4.0 mg/kg/injection, schedule: Q07DX002 (ip), vehicle: saline) was 9 of 10. Also, the survivor count is, setting by setting: (dose: 4.0 mg/kg/injection, schedule: Q#A X002 (ip), vehicle: saline) 8 of 10; (dose: 5.0 mg/kg/injection, schedule: Q01DX010 (ip), vehicle: saline) 2 of 6; (dose: 6.0 mg/kg/injection, schedule: Q03DX010 (ip), vehicle: saline) 6 of 6; under setting [1], 2 of 6; (dose: 7.0 mg/kg/injection, schedule: Q07DX010 (ip), vehicle: saline) 4 of 6; (dose: 8.0 mg/kg/injection, schedule: Q01DX001 (ip), vehicle: saline) 7 of 10 and 9 of 10. The survivor count (dose: 8.0 mg/kg/injection, schedule: Q02DX005 (ip), vehicle: saline) is recorded as 2 of 10; the survivor count (dose: 8.0 mg/kg/injection, schedule: Q04DX003 (ip), vehicle: saline) was 10 of 10; the survivor count (dose: 8.0 mg/kg/injection, schedule: Q07DX002 (ip), vehicle: saline) is reported as 7 of 10; the survivor count (dose: 8.0 mg/kg/injection, schedule: Q#A X002 (ip), vehicle: saline) was 0 of 10; the survivor count (dose: 12.0 mg/kg/injection, schedule: Q03DX010 (ip), vehicle: saline) is 1 of 6; the survivor count under setting [2] was 0 of 6 and 6 of 6. In addition, the survivor count by setting is: (dose: 14.0 mg/kg/injection, schedule: Q07DX010 (ip), vehicle: saline) 4 of 6; (dose: 16.0 mg/kg/injection, schedule: Q01DX001 (ip), vehicle: saline) 0 of 10; (dose: 16.0 mg/kg/injection, schedule: Q01DX010 (im), vehicle: saline) 6 of 6; (dose: 16.0 mg/kg/injection, schedule: Q01DX010 (oral), vehicle: saline) 3 of 6; (dose: 16.0 mg/kg/injection, schedule: Q04DX003 (ip), vehicle: saline) 0 of 10; (dose: 16.0 mg/kg/injection, schedule: Q07DX002 (ip), vehicle: saline) 0 of 10. Further, the survivor count is, setting by setting: (dose: 28.0 mg/kg/injection, schedule: Q01DX001 (ip), vehicle: saline) 0 of 6 and 3 of 6; (dose: 28.0 mg/kg/injection, schedule: Q07DX010 (ip), vehicle: saline) 1 of 6; (dose: 32.0 mg/kg/injection, schedule: Q01DX001 (ip), vehicle: saline) 0 of 10; (dose: 32.0 mg/kg/injection, schedule: Q01DX001 (oral), vehicle: saline) 5 of 10; (dose: 32.0 mg/kg/injection, schedule: Q04DX003 (ip), vehicle: saline) 0 of 10; (dose: 32.0 mg/kg/injection, schedule: Q07DX002 (ip), vehicle: saline) 0 of 10. In addition, the survivor count (dose: 64.0 mg/kg/injection, schedule: Q01DX001 (oral), vehicle: saline) is 0 of 10.
For the compound `Nc1ncns1`, the survivor count is, setting by setting: (dose: 200.0 mg/kg/injection, schedule: Q04DX003 (ip), vehicle: saline) 1 of 6; (dose: 400.0 mg/kg/injection, schedule: Q04DX003 (ip), vehicle: saline) 0 of 6.
